Data: publication PMC7819943, “Rice protein-binding microarrays: a tool to detect cis-acting elements near promoter regions in rice”
The list shows a part of the results.

Each sequence was assayed against T1, OsSMF1 (Oryza sativa, UniProt Q6ZLB0 1-436) (assay: protein-binding microarray (RPBM); PBS, 2% BSA, 51.3 ng/ul salmon testes DNA, 50 uM zinc acetate, 200 nM TF, 25 C, 1 h; high values mean tight binding). Details: protein: recombinant; tags: N-terminal polyhistidine and DsRed monomer fusion (pET32a); chain copies: 2; label: CyDye5-dUTP incorporated in the synthesized complementary strand; 3' TTTTT single-stranded linker to array surface; dsDNA, one strand shown.
T1 sequence: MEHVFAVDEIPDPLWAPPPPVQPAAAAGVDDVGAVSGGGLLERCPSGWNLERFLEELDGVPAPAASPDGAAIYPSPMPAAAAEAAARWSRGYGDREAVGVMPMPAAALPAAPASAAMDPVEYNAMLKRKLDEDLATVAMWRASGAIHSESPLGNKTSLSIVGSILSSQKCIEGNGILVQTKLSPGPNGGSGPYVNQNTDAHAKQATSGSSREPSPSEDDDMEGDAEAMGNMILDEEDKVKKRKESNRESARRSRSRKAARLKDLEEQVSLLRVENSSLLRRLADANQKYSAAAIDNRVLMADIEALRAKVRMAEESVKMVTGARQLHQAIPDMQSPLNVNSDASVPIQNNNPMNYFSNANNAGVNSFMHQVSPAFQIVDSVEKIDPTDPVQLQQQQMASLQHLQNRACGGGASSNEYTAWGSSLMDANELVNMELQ
Method in brief: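 Binding signal is reported as fluorescence intensity per feature (arbitrary units) from an Axon 4000B scanner. Incubation used 200 nM of each Ni–NTA-purified, N-terminally polyhistidine- and DsRed-fused transcription factor from E. coli BL21-CodonPlus on a double-stranded custom Agilent array for 1 h at 25 °C, with 50 µM zinc acetate in the buffer, followed by washing.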
For “CTATGTCAACGTGTCATGTAGGGCTTGTTTGGTTTGGTGCCGGAGTCACCTAGTGCAG”, the binding signal was 9160 fluorescence intensity (a.u.).
For “ATGTTACTGATACTGAGAAGTGACGTTGGGTTATACATTGCGGAGTCACCTAGTGCAG”, the binding signal was 3440 fluorescence intensity (a.u.).
For “ATGTCCAAAGTTCCCAACACAGCAATGACTTTTATACAACCGGAGTCACCTAGTGCAG”, the binding signal was 3650 fluorescence intensity (a.u.).
“ATTTCAATGCAGTGCAGCGTGGAGATGCTGAAATGGCACACGGAGTCACCTAGTGCAG” was tested, and the binding signal was 3380 fluorescence intensity (a.u.).
“GGCGGTGTCCGCCGTGGCCGTGATGCTCGACTCGGGCGAGCGGAGTCACCTAGTGCAG” was tested, and the binding signal was 3420 fluorescence intensity (a.u.).
With “GGAAGTGCTTGTGGTCGGAAAGCTTCTAGATGACGAGGATCGGAGTCACCTAGTGCAG” the binding signal was 3590 fluorescence intensity (a.u.).
“TTGCCGTATCGGCTCGCCTGAAAGCGTGTCATTAGCATGACGGAGTCACCTAGTGCAG” was tested, and the binding signal was 3950 fluorescence intensity (a.u.).
With “GATAATAATGTCAAATGTCATGATCCAGCGCAGCACGAGCCGGAGTCACCTAGTGCAG” the binding signal was 3290 fluorescence intensity (a.u.).
“CTCCAGGAGGGGTGGAGTTGGAGCTGGAGCTGTGACAAACCGGAGTCACCTAGTGCAG” was tested, and the binding signal was 12800 fluorescence intensity (a.u.).
For “GCCTGCATTATGCATACACGTCATTCACGTATGCATGGGCCGGAGTCACCTAGTGCAG”, the binding signal was 23800 fluorescence intensity (a.u.).
In the case of “AGCACCACATGGAATGAAGACCGGGTCAGCACCGCTACGTCGGAGTCACCTAGTGCAG”, the binding signal is reported as 3230 fluorescence intensity (a.u.).
With “AATGTGCTCATCAGCGCCTGACACGAAGATGTGGATCATCCGGAGTCACCTAGTGCAG” the binding signal was 3680 fluorescence intensity (a.u.).
In the case of “TTTCTGAAGGAGCACGGGAGTGCAATTAAGTTTGTCAGCACGGAGTCACCTAGTGCAG”, the binding signal is reported as 4090 fluorescence intensity (a.u.).
For “CTTTCAAGAGTAATTAAGAGAGGGCGATGATGTGTACATACGGAGTCACCTAGTGCAG”, the binding signal was 4690 fluorescence intensity (a.u.).
“AACTGTTTGTTTGGTGCTTTGACAAGTAACGGCATAGTTTCGGAGTCACCTAGTGCAG” was tested, and the binding signal was 3330 fluorescence intensity (a.u.).
In the case of “TATTTAAGTGGGGCCCACATGCCGTATCATATCCATGACCCGGAGTCACCTAGTGCAG”, the binding signal is reported as 4080 fluorescence intensity (a.u.).
With “AAAGATCAGAGAGACTACTAATCCGGTTTATTTACTGGCACGGAGTCACCTAGTGCAG” the binding signal was 44100 fluorescence intensity (a.u.).
For “GAGTAGCTCACTCCGGATCGGGTGTTAGGGATGGCCATCACGGAGTCACCTAGTGCAG”, the binding signal was 3390 fluorescence intensity (a.u.).
With “ACCAAACGATGCCACGCCGGTCAGATGTCGCCATCTCCCACGGAGTCACCTAGTGCAG” the binding signal was 4480 fluorescence intensity (a.u.).
For “TTTTGGATGCAGCATATGGTTGTCCCGATGCAAAATCCTCCGGAGTCACCTAGTGCAG”, the binding signal was 4530 fluorescence intensity (a.u.).
“AGTGTCCTTCTCAAAACTTAACTTCTGTGACGTCCTATAACGGAGTCACCTAGTGCAG” was tested, and the binding signal was 3540 fluorescence intensity (a.u.).
“CCGTGCCCGTGCTCGGAAGCCTCGTGTGGCTGACGCACTCCGGAGTCACCTAGTGCAG” was tested, and the binding signal was 4200 fluorescence intensity (a.u.).
In the case of “TCAAGTCCATGAAAGTATCAGCTTTTGGTTGTCAAATATACGGAGTCACCTAGTGCAG”, the binding signal is reported as 3150 fluorescence intensity (a.u.).
With “TCTACGGGTATCCCGCGTCGACAATATTCCCATGCATTTACGGAGTCACCTAGTGCAG” the binding signal was 3490 fluorescence intensity (a.u.).
With “CAGCGTTCGGTGGGAGGTGACGCTGACGCAGCGCAATCGCCGGAGTCACCTAGTGCAG” the binding signal was 7040 fluorescence intensity (a.u.).
“CTATTATATGAGAGAAAATATAATGATGCTAGCCGCGCAACGGAGTCACCTAGTGCAG” was tested, and the binding signal was 27200 fluorescence intensity (a.u.).
In the case of “GTCACGCGCAACATTCATTGCGAAGTCACGACTTGCGAGCCGGAGTCACCTAGTGCAG”, the binding signal is reported as 4400 fluorescence intensity (a.u.).
With “AACTTTTAATGATGTTCAACATGGGAAAATATGTGGTGGACGGAGTCACCTAGTGCAG” the binding signal was 8320 fluorescence intensity (a.u.).
With “CCTATGTTAGGGTAACTATCATTGACCATGAAACTCATCTCGGAGTCACCTAGTGCAG” the binding signal was 3210 fluorescence intensity (a.u.).
In the case of “CTTGCGCGCGTGATTTGCCATTGCCACATGTCCGATTGGGCGGAGTCACCTAGTGCAG”, the binding signal is reported as 4520 fluorescence intensity (a.u.).
In the case of “CCGACGAAATCGACCACGCTGCATGAGGTCTCCACCTCACCGGAGTCACCTAGTGCAG”, the binding signal is reported as 3150 fluorescence intensity (a.u.).
“TGTTTGTGAAATGATATATTACAAATTAACCTATCTTGTGCGGAGTCACCTAGTGCAG” was tested, and the binding signal was 20400 fluorescence intensity (a.u.).
With “TTGATCTCTTGTCTTCTATGGACCAAAAGTGACGTGGTGACGGAGTCACCTAGTGCAG” the binding signal was 11700 fluorescence intensity (a.u.).
With “GGCGCTGTCGGACCCCTCCGGCGCGCTGGCGACGTGGACGCGGAGTCACCTAGTGCAG” the binding signal was 4610 fluorescence intensity (a.u.).
With “TGTTCATCTGCGCCACGACACGACACGACACGACACGAGACGGAGTCACCTAGTGCAG” the binding signal was 4370 fluorescence intensity (a.u.).
With “CTAGGTAAGCAATGACGAGGACACAGCAGCATAGGAAGCTCGGAGTCACCTAGTGCAG” the binding signal was 3960 fluorescence intensity (a.u.).
In the case of “CTGCTTCATGGATTGATCCATGCTGTCGTAGTGGCTCTCGCGGAGTCACCTAGTGCAG”, the binding signal is reported as 26600 fluorescence intensity (a.u.).
For “ATAGTACAAATGCATGTGTCCATAACGCGTGTATACTCACCGGAGTCACCTAGTGCAG”, the binding signal was 3630 fluorescence intensity (a.u.).
In the case of “CAACTCCGGCGTGGCGGCGTACGTGGCGGCGTCGACGGTGCGGAGTCACCTAGTGCAG”, the binding signal is reported as 10800 fluorescence intensity (a.u.).
For “TTTAGAATTCCCGGATCAAAACCTTATCGTCTTATATATCCGGAGTCACCTAGTGCAG”, the binding signal was 3660 fluorescence intensity (a.u.).
For “CATTATATCGAAGTTGTACTGCATGAAACCTTAAGCAATGCGGAGTCACCTAGTGCAG”, the binding signal was 3180 fluorescence intensity (a.u.).
With “TGGCAAATCTCATCAGCAACAGGGACCTCTTGGTGTGACTCGGAGTCACCTAGTGCAG” the binding signal was 4290 fluorescence intensity (a.u.).
